2 molecules from PMC4373815 can be followed below.

Positions count from the first letter of the chain named. These are yes or no findings as the source states them, for the method shown. In cells and extracts the contact can be indirect. Some results given as binding are weak or reduced against the parent protein; the word gives no strength. Tags and fused reporters may be left off the sequences shown.

One test addresses T1, Grx4-GFP (S. pombe) (UniProt O74790).
T1 sequence: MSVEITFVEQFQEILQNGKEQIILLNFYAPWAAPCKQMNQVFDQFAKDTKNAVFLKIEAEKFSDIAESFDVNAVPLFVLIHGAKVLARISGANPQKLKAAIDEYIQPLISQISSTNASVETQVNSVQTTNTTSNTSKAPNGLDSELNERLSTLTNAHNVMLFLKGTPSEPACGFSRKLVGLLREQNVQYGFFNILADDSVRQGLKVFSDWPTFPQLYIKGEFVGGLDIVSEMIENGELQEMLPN
Nature of the test: co-IP; total native protein extracts of S. pombe strains with tagged genes, immuno-precipitated with GFP-trap beads, blotted with anti-Myc or anti-GFP; cells treated or not with 0.25 mM DIP; for Grx4-Fep1 also in cells lacking Fra2.

The target of test [1] is T2, Grx4.C172S-GFP (S. pombe) (UniProt O74790).
T2 sequence: T1 sequence with C172S
The test is described as above.

B1: Php4-Myc (protein, UniProt O14318 1-295)
chain: MESSKSPSEVEKSSSASPAPQKPMIRVSKQWVVPPRPKPGRKPALDALGRRKAPIKPRPGPTSALSVEEAKFRVREKQYQDTIGKLQKENNELLEQLEMLQAQLKNSTLDSPKEVEVNSEVVKPDSATTENENRYVNQYNYPVEPPCAKNAVYTEIPIELDPHAFLGDSAKRIRVDSDSKDAKSVPSENGRIRVSMSPQNEINFTPENPAVMEKIRKRGVCNSVEGCLYSGSPKSVKRVRESEETKVYAQLLIDLHKSSKSAPMLKAGPSIAFKLPTMEPNFNDVRPVTSISSSS
As for B1, the binding entry with Grx4-GFP (S. pombe) is reported as “binds”.

B2: Fep1-Myc (protein, UniProt Q10134 1-564)
chain: MAAKPAPFGQSCSNCHKTTTSLWRRGPDNSLLCNACGLYQKHRKHARPVKSEDLKDISPLIQQVCKNGTCAGDGFCNGTGGSASCTGCPALNNRIRSLNASKSQSGRKSLSPNPSSVPSSTETKASPTPLESKPQIVSDTTTETSNGTSRRRSSHNQHEDSSPPHEPSVTFCQNCATTNTPLWRRDESGNPICNACGLYYKIHGVHRPVTMKKAIIKRRKRLVFNGNANESQHNLKRMSSGDSGSSVKQQSTRDGPFSKSFPNGNGHASGNSGEGLAEHGMNTGVLPPASTFPSYNSNFTGFLPSSFNPSPLMTLSRLAAGEPDNNGKVYYSYGPTQEQSILPLPENKHEGLPPYQNEYVPNGIRANQVVYPGQLVAVGNDSSKQLSESTTSNTDNNGVATANQSNPLGMKFHLPPILPVGESVCLPPRTSAKPRIAEGIASLLNPEEPPSNSDKQPSMSNGPKSEVSPSQSQQAPLIQSSTSPVSLQFPPEVQGSNVDKRNYALNVLSQLRSQHDLMIQELHNLNQHIQQIDEWLRSSDNENMASEHIKSSTPAVVASGALQT
Regarding B2, the binding entry (in the test with Grx4-GFP (S. pombe); in test [1]) was “binds” in each case.
